PubChem BioAssay AID743454 – Peter MacCallum Cancer Centre – 2014

Test: 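Genes whose loss kills vorinostat-resistant colon cancer cells under vorinostat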 (primary screen)
Cell system: human HCT116-VR colon cancer cells, selected for vorinostat resistance
Knock-down reagent: siRNA pool against human genes, 40 nM siRNA pool
Duration: vorinostat for 24 h, read-out about 72 h after transfection
Challenge: vorinostat at 2.5 µM final
Measurement: 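Cell viability by CellTiter-Fluor and caspase 3/7 activity by luminescence, each scaled to mock wells per plate, duplicates averaged, then robust z-scored over all plates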
Direction: viability robust z-score: higher = more viable cells than screen typical; caspase robust z-score: higher = more caspase 3/7 activity than screen typical
Call rule: 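a knock-down is a hit when classed RV1 or RV2 for lowered viability, or CA1 or CA2 for caspase activation; those lethal without drug were dropped; hits were retested singly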
The deposit covers about 18,000 reagents; this is an unselected part. Over the whole deposit, 450 (2.5%) got an active call. 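Single biological run; no consistent viability z cut-off exists, so the class columns, not z-scores, define the calls.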 A number with no mark means an inactive call. No sequences are given here.

target	viability hit class	caspase hit class	viability robust z-score	caspase robust z-score
SND1-IT1 (SND1 intronic transcript 1)	no change	no change	0.88	-0.4
SYNM (synemin)	no change	no change	1.1	-0.63
GYPB (glycophorin B (MNS blood group))	no change	no change	0.99	-0.94
ABCB8 (ATP binding cassette subfamily B member 8)	no change	no change	-0.44	0.91
TSC1 (TSC complex subunit 1)	no change	no change	-0.07	0.31
TNFRSF13C (TNF receptor superfamily member 13C)	no change	no change	-0.98	0.16
MAGEA8 (MAGE family member A8)	no change	no change	0.1	0.19
TMEM266 (transmembrane protein 266)	no change	no change	1.64	0.82
PPP3CC (protein phosphatase 3 catalytic subunit gamma)	no change	no change	-2.79	0.95
TMEM176B (transmembrane protein 176B)	no change	no change	-1.01	-0.56
SYNE1 (spectrin repeat containing nuclear envelope protein 1)	no change	no change	-0.05	-0.94
ZNF77 (zinc finger protein 77)	no change	no change	0.92	-0.71
PFKL (phosphofructokinase, liver type)	no change (active)	CA2 (caspase activation)	-3.39	6.05
PI3 (peptidase inhibitor 3)	no change	no change	-0.75	2.84
CASKIN1 (CASK interacting protein 1)	no change	no change	0.57	-0.49
CALCR (calcitonin receptor)	no change	no change	-0.78	-0.44
ANKRD53 (ankyrin repeat domain 53)	no change	no change	-0.06	-0.52
PRR15 (proline rich 15)	no change	no change	-0.5	1.17
PCDHB1 (protocadherin beta 1)	no change	no change	0.88	-0.57
OR13C2 (olfactory receptor family 13 subfamily C member 2)	no change	no change	1.7	1.65
IPO13 (importin 13)	no change	no change	-1.33	0.74
MIER2 (MIER family member 2)	no change	no change	0.21	-0.94
HMGA1 (high mobility group AT-hook 1)	no change	no change	0.3	2.82
KRT77 (keratin 77)	no change	no change	0.61	0.87
NAALADL2 (N-acetylated alpha-linked acidic dipeptidase like 2)	no change	no change	2.04	-0.28
VPS26B (VPS26 retromer complex component B)	no change	no change	1.34	2.95
BPIFB6 (BPI fold containing family B member 6)	no change	no change	0.54	-1.03
CC2D2B (coiled-coil and C2 domain containing 2B)	no change	no change	0.14	-0.71

Entries listed so far marked active:
target	viability hit class	caspase hit class	viability robust z-score	caspase robust z-score
PFKL (phosphofructokinase, liver type)	no change (active)	CA2 (caspase activation)	-3.39	6.05

Further entries follow.
target	viability hit class	caspase hit class	viability robust z-score	caspase robust z-score
RPS14 (ribosomal protein S14)	no change	no change	-4.75	-1.36
ZNF703 (zinc finger protein 703)	no change	no change	1.29	-0.08
H3C4 (H3 clustered histone 4)	no change	no change	-1.25	-0.21
NOP2 (NOP2 nucleolar protein)	no change	no change	-3.23	0.7
PID1 (phosphotyrosine interaction domain containing 1)	no change	no change	0.21	-0.55
DYNC1LI1 (dynein cytoplasmic 1 light intermediate chain 1)	no change	no change	1.08	-0.56
SDHB (succinate dehydrogenase complex iron sulfur subunit B)	no change	no change	0.84	-0.12
OSBPL2 (oxysterol binding protein like 2)	no change	no change	1.38	-0.38
EFHD1 (EF-hand domain family member D1)	no change	no change	-0.57	-1.22
PRIMPOL (primase and DNA directed polymerase)	no change	no change	0.99	-0.13
FRRS1 (ferric chelate reductase 1)	no change	no change	0.08	0.3
MUC7 (mucin 7, secreted)	no change	no change	2.08	1.93
LSM6	no change	no change	-0.3	2.64
RPF2 (ribosome production factor 2 homolog)	no change	no change	-1.24	-0.23
SAA4 (serum amyloid A4, constitutive)	no change	no change	-0.09	-0.39
KLB (klotho beta)	no change	no change	-1.33	4.04
MAP4K5 (mitogen-activated protein kinase kinase kinase kinase 5)	no change	no change	-0.72	-1.25
TMC4 (transmembrane channel like 4)	no change	no change	0.72	1.15
PPIH (peptidylprolyl isomerase H)	no change	no change	0.81	-0.26
MOB2 (MOB kinase activator 2)	no change	no change	-0.42	0.5
LCE1C (late cornified envelope 1C)	no change	no change	-0.11	1.24
ADAM10 (ADAM metallopeptidase domain 10)	no change	no change	-0.43	-0.31
TLR6 (toll like receptor 6)	no change	no change	-1.21	0.01
SEZ6 (seizure related 6 homolog)	no change	no change	-1.7	5.11
COQ8A (coenzyme Q8A)	no change	no change	-0.92	1.67
LIN9 (lin-9 DREAM MuvB core complex component)	no change	no change	-0.41	1.02
IDNK (IDNK gluconokinase)	no change	no change	-0.28	-0.29
SLC46A1	no change	no change	0.2	-0.22
RARRES2 (retinoic acid receptor responder 2)	no change	no change	0.53	0.76
HSF2 (heat shock transcription factor 2)	no change	no change	1.02	1.86
SAMD10 (sterile alpha motif domain containing 10)	no change	no change	0.43	0.5
FBXO47 (F-box protein 47)	no change	no change	0.42	-0.7
CDKL4 (cyclin dependent kinase like 4)	no change	no change	-0.92	1.9
ATP1B3 (ATPase Na+/K+ transporting subunit beta 3)	no change	no change	-0.9	3.52
GMEB1 (glucocorticoid modulatory element binding protein 1)	no change	no change	0.3	-1.21
CYP2C19 (cytochrome P450 family 2 subfamily C member 19)	no change	no change	-0.44	-0.28
CRNN (cornulin)	no change	no change	-2.97	3.04
SLC25A15	no change	no change	-0.05	5.06
MAP3K19 (mitogen-activated protein kinase kinase kinase 19)	no change	no change	-1.54	-0.88
DNAAF3 (dynein axonemal assembly factor 3)	no change	no change	-1.23	-0.34
ADIPOR1 (adiponectin receptor 1)	no change	no change	-0.65	0.94
CCL3L3 (C-C motif chemokine ligand 3 like 3)	no change	no change	-0.11	2.13
PHYHD1 (phytanoyl-CoA dioxygenase domain containing 1)	no change	no change	-0.62	-0.48
ST6GAL2 (ST6 beta-galactoside alpha-2,6-sialyltransferase 2)	no change	no change	0.45	-0.35
WDR49 (WD repeat domain 49)	no change	no change	0.3	-1.23
